Measured values: patent US10792332B2, “Anti-infective properties of antifreeze protein” (priority 2013, dated 2020)
“Also recorded” adds a separate entry of the source. Part of at least one peptide drawing is inferred or uncertain, most often the ends. Ends that are not written are not given here.

Tests used:
[1] = system: various bacteria (Escherichia coli, Serratia marcescens, Pseudomonas entomophila, Listeria monocytogenes, Staphylococcus aureus); test: Protein/peptide binding to bacteria, detected by immunoblot; conditions: biotinylated P1; S. aureus SA113, USA300 JE2, L. monocytogenes EGDe, E. coli DH5a
[2] = system: S. aureus; test: Bacterial growth in vitro (OD600); format: cell-based, Staphylococcus aureus; conditions: 0.1 mg/ml in BHI/G, 37° C., SA113 or USA300 JE2
Procedure: A stationary culture of S. aureus was diluted to OD600=0.01 in BHI medium and supplemented with 0.2 mg/ml recombinant IAFGP-GST, BSA or PBS as control. Bacterial growth was measured over time at OD600 using a spectrophotometer. Growth curves from 5 independent experiments were pooled±SEM.
A stationary culture of S. aureus SA113 or USA300 JE2 was diluted in BHI/G to OD600=0.01 supplemented with 0.1 mg/ml IAFGP-GST, GST, P1, sP1 or media alone. Following static incubation at 37° C. for 24 h bacterial density was measured at OD600 using a spectrophotometer.

## PARKARAATAATAATAATAATAAT [P1]
[1]
  peptide binding to bacterial species: bound S. aureus in a manner similar to IAFGP; also recorded: bound to different bacterial species
[2]
  bacterial density/viability at OD600 after 24 h static incubation: Neither proteins nor peptides affected bacterial growth; also recorded: did not influence bacterial viability
